From ChEMBL document CHEMBL3988442, “University of Dundee, Small-Polar-MMV Screening Library” (2021).

The chains behind the UniProt entries cited, without tags or fusion partners. Residues count along the entry.
UniProt Q8IDJ8, 1-583: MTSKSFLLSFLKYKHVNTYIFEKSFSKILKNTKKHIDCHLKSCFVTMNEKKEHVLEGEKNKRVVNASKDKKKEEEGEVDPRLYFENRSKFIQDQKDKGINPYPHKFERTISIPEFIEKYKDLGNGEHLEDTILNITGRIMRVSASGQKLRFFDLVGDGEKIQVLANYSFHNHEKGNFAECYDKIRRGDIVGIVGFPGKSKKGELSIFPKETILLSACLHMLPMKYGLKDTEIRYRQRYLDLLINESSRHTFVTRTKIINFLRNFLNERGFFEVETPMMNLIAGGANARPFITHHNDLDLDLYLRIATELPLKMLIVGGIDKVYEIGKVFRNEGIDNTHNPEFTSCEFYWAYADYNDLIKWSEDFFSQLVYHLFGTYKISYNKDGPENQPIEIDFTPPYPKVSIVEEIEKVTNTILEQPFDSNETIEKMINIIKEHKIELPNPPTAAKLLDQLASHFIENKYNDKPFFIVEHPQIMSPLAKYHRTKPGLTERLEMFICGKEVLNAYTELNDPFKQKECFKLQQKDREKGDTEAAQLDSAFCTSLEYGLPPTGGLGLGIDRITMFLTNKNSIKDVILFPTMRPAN
UniProt A4I591, 1-473: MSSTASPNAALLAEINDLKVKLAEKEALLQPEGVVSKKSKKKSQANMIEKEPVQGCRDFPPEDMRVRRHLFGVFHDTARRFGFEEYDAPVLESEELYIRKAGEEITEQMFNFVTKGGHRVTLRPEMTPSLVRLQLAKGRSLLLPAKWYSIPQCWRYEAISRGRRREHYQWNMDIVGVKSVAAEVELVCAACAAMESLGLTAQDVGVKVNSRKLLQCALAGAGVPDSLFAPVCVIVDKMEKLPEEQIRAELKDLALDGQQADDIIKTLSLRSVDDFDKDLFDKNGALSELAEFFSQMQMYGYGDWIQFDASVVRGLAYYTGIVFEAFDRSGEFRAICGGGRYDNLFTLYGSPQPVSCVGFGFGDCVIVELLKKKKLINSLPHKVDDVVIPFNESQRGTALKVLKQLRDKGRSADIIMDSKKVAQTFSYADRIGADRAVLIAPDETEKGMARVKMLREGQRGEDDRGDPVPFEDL

Leishmania in macrophages: 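Cell assay of Leishmania donovani living inside macrophages; the read-out is not stated. Concentration: 30 µM. Direction is inferred from retests: higher values go with stronger inhibition. Of about 69,000 compounds tested this way, about 1,000 (1.5%) reached 50% or more in at least one test.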
PfKRS1: 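Enzyme assay of the cytosolic lysyl-tRNA synthetase in 384-well plates, read by luminescence. Target: Lysine-tRNA ligase, Plasmodium falciparum 3D7 (UniProt Q8IDJ8). Compounds at 30 µM. Higher reads as stronger inhibition, judged from the few compounds that gave an IC50. Size under these conditions: about 69,000 compounds, about 49 of them at 50% or above in at least one test.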
LiHisRS: 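Enzyme assay of histidyl-tRNA synthetase; the read-out is not stated. Target: Histidine-tRNA ligase, Leishmania infantum (UniProt A4I591). Compounds at 30 µM. The record gives no direction; compounds that gave an IC50 in retests scored well above the rest, so higher reads as stronger inhibition. The assay is labelled LdHisRS but filed under L. infantum. Size under these conditions: about 69,000 compounds, about 410 of them at 50% or above in at least one test.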

Values are the deposited “Percent Effect”, in %. The record does not define 0% and 100%; most values in the screen are far below 50% and negative numbers occur (in some assays of this library far below -100). Compounds were drawn at random from those tested, without regard to their results. Two or more numbers in one place are separate tests of the same structure; such repeats can differ widely. A dash means the value is not listed here; it may have been measured.

| Compound | Leishmania in macrophages | PfKRS1 | LiHisRS |
|---|---|---|---|
| `O=C(NCC1CC1)C1CN(Cc2cccs2)Cc2ccnn2C1` (centres undefined) | -5.531 | 1.061 | 2.778 |
| `CN(CCCc1ccccc1)Cc1nc2c(cnn2C)c(=O)[nH]1` | 4.358 | 6.815 | 9.524 |
| `CC(=O)c1cccc(NC(=O)Cn2cc(I)cn2)c1` | 8.744 | 3.355 | 11.43 |
| `O=C(O)C(F)(F)F.O=C(c1ccccc1)N1CCC2(CCCN2c2ncccn2)CC1` | 0.2079 | - | - |
| `CC(C)CN1C(=O)CO[C@@H]2CNC[C@H]21` | - | 5.167 | 16 |
| `CCS(=O)(=O)N1CCN(c2cc(-n3cnc(C)c3C)nc(C)n2)CC1` | 18.94 | 1.353 | -6.452 |
| `O=C(c1ccc[nH]1)N1C[C@H]2CC[C@@H]1CN(c1ncccn1)C2` | - | -0.963 | 21.7 |
| `CC[C@@H]1N(CC2CC2)CCC[C@]12CCC(=O)N2CCOC.O=C(O)C(F)(F)F` | -12.36 | - | - |
| `CCc1n[nH]c(C2CN(C(=O)c3cnns3)CCO2)n1` (centres undefined) | -6.866 | 6.151 | -5.618 |
| `COc1ccc(C)cc1CC(=O)N1CC[C@@]2(CCCO2)[C@@H](O)C1` | 21.43 & 3.103 | 3.476 | 21.74 |
| `COc1ccc(C(NCc2cccc(C#N)c2)C2CC2)cc1` (centres undefined) | -4.778 | 4.492 | 3.797 |
| `CCn1cc(-c2cc(-c3ccn(C)c3)nc(N)c2C#N)cc1C#N` | 62.07 | 0.8964 | 10.42 |
| `CC(C)OCc1cccc(NC(=O)N(C)Cc2ncnn2C)c1` | 29.9 | -1.666 | 12.9 |
| `Cn1c(=O)c2c(c3ccccc31)OC(C)(C)CC2` | 15.34 | 0.8003 | 5.747 |
| `C[C@@H]1CN(C(=O)CCc2nncn2C)CC[C@@]1(O)C1CCC1` | 7.255 | 2.034 | 0 |
| `O=C(c1ccc(Cl)cc1)N1CCn2c(nn(-c3ccncc3)c2=O)C1` | 36.12 | -0.2568 | 9.655 |
| `CCOc1ccc(CNC(C)c2c(C)nn(C)c2C)cc1` (centres undefined) | -17.62 | 4.585 | 27.14 |
| `CC(C)CNC(=O)c1c(-n2cnnn2)sc2c1CCC2` | 4.778 | 14.89 | 22.86 |
| `CCOC(=O)NC(CNC(=O)c1cn(C)cn1)CC(C)C` (centres undefined) | 8.061 | 3.059 | 11.48 |
| `[H][C@]12CNC[C@@]1(C(=O)NCCS(=O)(=O)CC)CN(C1CCCC1)C2` | 5.664 | - | - |
| `Cn1ncc2c(NC3CCSC3)nc(-c3ccncc3)nc21` (centres undefined) | 21.26 | 4.623 | 15.93 |
| `[H][C@@]12C[C@@H](c3nc(C)no3)CN(S(=O)(=O)c3ccccc3)[C@]1([H])CCO2` | -4.885 | - | - |
| `CCN(C)c1nccc(N2CCN[C@H]3CS(=O)(=O)C[C@H]32)n1` | - | 0.1998 | 6.452 |
| `CS(=O)(=O)NCCNC(=O)c1ccc(OCc2ccccc2)nc1` | -10.83 | 0.9817 | -0.8929 |
| `CCOc1ccc2[nH]c(=O)c(CN3CCCCC3C)cc2c1` (centres undefined) | 21.3 | 11.92 | 17.65 |
| `Cc1noc(C)c1CCC(=O)NC(C)c1nnc2n1CCCCC2` (centres undefined) | 18.73 | 5.884 | 18.03 |
| `Cc1ccc2nc(-c3nc4c([nH]3)CCCNC4=O)cn2c1` | 34.67 | 6.299 | 9.735 |
| `[H][C@@]12C[C@@H](C(=O)NC)N(C(C)=O)[C@]1([H])CN(Cc1ccc(C)o1)C2` | 4.522 | - | - |
| `CSc1ccccc1C(C(=O)O)N(C)CC1CCOCC1` (centres undefined) | 14.42 | 2.791 | 6.195 |
| `Cc1cc(I)c2c(c1)C(=O)C(CN1CCCC1)(CN1CCCC1)CO2` | 15.21 | 1.696 | 18.56 |
| `CN(C)Cc1cc(=O)n2c(n1)CN(CC1CCOCC1)CCC2` | 4.027 | 4.221 | 13.16 |
| `Cl.FC(F)Oc1ccc(CNCc2cc(Cl)c3c(c2)OCO3)cc1` | 15.4 | - | - |
| `CC(=O)N1CCC(Oc2ccc(C#N)cc2)CC1` | -0.2663 | 5.617 | 12.61 |
| `CCCC(=O)NC(C)c1nnc2n1CCC2` (centres undefined) | 3.596 | 0.05533 | 7.692 |
| `COc1c(C)cnc(CN2CCOC(Cn3nc(C)cc3C)C2)c1C` (centres undefined) | 21.11 | 2.841 | 6.78 |
| `O=c1n(CC2CCCCO2)nc(CC2CCNCC2)n1-c1ccccc1` (centres undefined) | 13.88 | 3.569 | -16.44 |
| `CCCS(=O)(=O)N1C[C@@H](c2ccccc2)[C@@]2(CCNC2=O)C1` | 24.68 | -0.8355 | 11.82 |
| `Cn1cc(N2CC3(CCN(Cc4cccnc4)CC3)OCC2=O)cn1` | - | 6.861 | 11.93 |
| `O=C(Nc1nnc(C2CC2)s1)NC1CCN(Cc2ccccc2)C1` (centres undefined) | -16.63 | -0.3517 | 14.89 |
| `COC(=O)c1ccc(NC(=O)CCc2ccco2)cc1` | -0.01173 | 4.549 | 8.85 |
| `Cc1occc1CNC(=O)N1CCC(Cc2cnn(C)c2)C1` (centres undefined) | 2.714 | 2.455 | 14.68 |
| `[H][C@@]12CCN(Cc3cnn(C)c3)C[C@@]1([H])O[C@H](c1nc(C)c(C)s1)C2` | 19.58 | - | - |
| `CCCc1nnc(N2CC[C@@](O)(C3CCOCC3)[C@H](C)C2)s1` | 26.84 | -1.586 | -2.597 |
| `Cc1ccc(CC(=O)N2Cc3nccn3CC(Cn3cccn3)C2)cc1` (centres undefined) | 15.31 | 2.39 | 15.24 |
| `O=C(c1ccncc1F)N1CC[C@@H]2CN(c3ncccn3)CCO[C@@H]2C1` | - | 5.128 | 16 |
| `COc1cc2c(cc1CNCc1ccnc(-n3cccn3)c1)OC(C)C2.Cl` (centres undefined) | 10.47 | - | - |
| `Cc1ccc(C(=O)N2CCCC(C(=O)N3CCCCC3)C2)c(O)c1` (centres undefined) | 5.304 | 3.444 | 0 |
| `CN1CC(NC(=O)Nc2cnn(-c3ccccc3Cl)c2)CCC1=O` (centres undefined) | 13.01 | 0.3654 | 8.929 |
| `CCc1ccc(C2CC(=O)Nc3c2c(=O)[nH]n3C(C)C)cc1` (centres undefined) | -19.81 | 2.58 | 5.195 |
| `[H][C@@]12CCN(Cc3ccco3)CC[C@]1([H])[C@@H](COCC1CC1)CN(C)C2=O` | 5.922 | - | - |
| `CN(C)c1cccc(C2CCCN2c2nc3c(cnn3C)c(=O)[nH]2)c1` (centres undefined) | 14.74 | 1.05 | 16.96 |
| `CN(C)C[C@@H]1CN(C(=O)c2cc(F)ccc2F)C[C@@H]1CO` | 22.29 | 0.4159 | 0 |
| `C[C@@H](CO)Nc1nccc(-c2cnc3sc(Cl)cn3c2=O)n1` | 16.42 & 0.4645 | 3.367 | 17.14 |
| `Cc1cccc(CCC(=O)N2CCCC(c3cc(C(N)=O)[nH]n3)C2)c1` (centres undefined) | -19.66 | -2.986 | 16.67 |
| `Cc1ncc(CN2CCCC(c3nc4ccccc4n3C(C)C)C2)s1` (centres undefined) | -17.43 | 1.072 | 6 |
| `CNC(=O)C1(c2cnccn2)CCCN1C(=O)c1ccccc1` (centres undefined) | -15.16 | 1.629 | 9.375 |

7 of the entries, repeated:

Compound	Leishmania in macrophages	PfKRS1	LiHisRS
Cc1cccc(CCC(=O)N2CCCC(c3cc(C(N)=O)[nH]n3)C2)c1 (centres undefined)	-19.66	-2.986	16.67
CN1CC(NC(=O)Nc2cnn(-c3ccccc3Cl)c2)CCC1=O (centres undefined)	13.01	0.3654	8.929
COc1ccc(C)cc1CC(=O)N1CC[C@@]2(CCCO2)[C@@H](O)C1	21.43 & 3.103	3.476	21.74
Cn1ncc2c(NC3CCSC3)nc(-c3ccncc3)nc21 (centres undefined)	21.26	4.623	15.93
CCc1n[nH]c(C2CN(C(=O)c3cnns3)CCO2)n1 (centres undefined)	-6.866	6.151	-5.618
[H][C@@]12C[C@@H](C(=O)NC)N(C(C)=O)[C@]1([H])CN(Cc1ccc(C)o1)C2	4.522	-	-
CCCC(=O)NC(C)c1nnc2n1CCC2 (centres undefined)	3.596	0.05533	7.692